Results reported in PubChem BioAssay AID651789 (National Center for Advancing Translational Sciences (NCATS), 2012).
Inconclusive means that the source gave no clear call. Such entries were picked first, then a sample of the others. Potencies of inconclusive entries are doubtful fits and often do not repeat. The source made the active and inactive calls. Calls come from the whole dose curve; as a rule, active = well fitted inhibition curve with a large enough effect; inconclusive = small, poorly fitted or top-dose-only effect; inactive = no such curve, though single readings can be large or run the other way.

Assay: Acumen qHTS Assay for Inhibitors of the mTORC1 Signaling Pathway in WT MEF Cells: Hit Validation; note: nearly all actives have a fitted effect of over 60% in size
Details: Acumen imaging; series mostly up to 37.3 µM
Method in brief: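 Read-out is immunofluorescent phospho-rpS6 (Ser235/236) normalised to PI-stained cell number, reported as % active cells using a 7.5 nM rapamycin threshold. Cells: WT or Tsc2-/-, p53-/- MEFs, compound-exposed 24 h at 37C; PI count also tracks viability.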
Potency is the fitted concentration of half-maximal effect.

Row | Structure (SMILES) | Potency
1 | CCCCN(C)CC(O)Cn1cc(/C=C/C(=O)c2ccc(C)cc2)c2ccccc21 (centres undefined) | inconclusive: 0.131 µM [inhibitor, full curve, poor fit]
2 | CC(C)COc1ccc(C(=O)NCC2(N3CCN(C)CC3)CCCCC2)cc1 | inconclusive: 26.1 µM [inhibitor, single point]
3 | Cc1ccc(-c2noc(CCC(=O)N(C)c3ccccc3F)n2)cc1 | inactive
4 | Cc1ccccc1NC(=O)c1sc2nc3c(cc2c1N)CCCC3 | inactive
5 | COc1cc2c(cc1OC)n(CC(=O)c1ccc(F)cc1)c(=O)n1nc(CCn3nc(C)cc3C)nc21 | inconclusive: 3.69 µM [inhibitor, full curve, poor fit]
6 | CC1=Nc2cc(C(=O)NC3CCCC3)ccc2Sc2ccc(Cl)cc21 | active: 0.826 µM
7 | O=C(Nc1ccc(F)c(Cl)c1)c1cc(S(=O)(=O)N2CCCc3ccccc32)ccc1F | inconclusive: 26.1 µM [inhibitor, single point]
8 | CCN(CCN(C)C)C(=O)C1CCN(S(=O)(=O)c2c(C)noc2/C=C/c2ccccc2F)CC1 | inconclusive: 3.69 µM [inhibitor, partial curve, poor fit]
9 | Cc1ccc2nc(/C(C#N)=C/c3cccc(Br)c3)[nH]c2c1 | inconclusive: 1.65 µM [inhibitor, partial curve, poor fit]
10 | CC(C)OCc1cc(CN2CCN(c3cccc(C(F)(F)F)c3)CC2)c(O)c2ncccc12 | inconclusive: 2.33 µM [inhibitor, full curve]
11 | O=C(Cn1cc(SCc2ccccc2)c2ccccc21)N1CCCCCC1 | inconclusive: 13.1 µM [inhibitor, single point]
12 | Cc1ccc(NC(=O)c2nc(S(=O)(=O)Cc3cccc(C)c3)ncc2Cl)cc1 | inconclusive: 16.5 µM [inhibitor, single point]
13 | O=C(Nc1ccc(F)c(F)c1)c1ccc(F)c(S(=O)(=O)N2CCC3(CC2)OCCO3)c1 | inconclusive: 23.3 µM [inhibitor, single point]
14 | CCC(=O)C1=C(c2ccc(F)cc2)N(C(=O)CC)n2cnnc2S1 | inactive
15 | O=C(CCS(=O)(=O)c1nc(-c2cccs2)cc(C(F)(F)F)n1)Nc1cccc(O)c1 | inconclusive: 16.5 µM [inhibitor, single point]
16 | Cc1ccccc1S(=O)Cc1ccc(C(=O)N2CCN(c3cccc(C)c3C)CC2)o1 (centres undefined) | inconclusive: 0.293 µM [inhibitor, full curve]
17 | Oc1ccc(NCc2ccc(OCc3ccccc3)cc2)cc1 | inconclusive: 1.04 µM [inhibitor, full curve]
18 | Cc1nnc(C(=O)NC(C)(C)c2nc(C(=O)NCc3ccc(F)cc3)c(O)c(=O)n2C)o1 | inactive
19 | Cc1ccc(-n2c(=O)c3ccc(C(=O)NCc4ccco4)cc3n(Cc3ccc(Cl)cc3)c2=O)cc1 | inconclusive: 7.36 µM [inhibitor, partial curve, poor fit]
20 | CN(C)c1ccc(C(=O)Nc2sc(Nc3ccccc3)nc2C(N)=O)cc1 | inconclusive: 3.29 µM [inhibitor, full curve]

Row | Structure (SMILES) | Potency
21 | Cc1ccc(CN(Cc2ccco2)C(=O)c2cccc(C)c2)cc1 | inactive
22 | CCNS(=O)(=O)c1cc(-c2nnc(Nc3cccc(C(F)(F)F)c3)c3ccccc23)ccc1C | inactive
23 | CC1C(=O)N2CCCc3cc(S(=O)(=O)Nc4ccc(Br)cc4F)cc1c32 (centres undefined) | active: 2.07 µM
24 | COc1ccc(Cl)cc1NC(=O)CCCS(=O)(=O)c1nc(-c2ccc(OC)c(OC)c2)cc(C(F)(F)F)n1 | active: 3.69 µM
25 | Cc1cccc(NC(=O)c2nc(S(C)(=O)=O)ncc2Cl)c1 | active: 1.65 µM
26 | N#Cc1c(C(F)(F)F)cc(-c2cccs2)nc1SCC(=O)Nc1cccc(Br)c1 | inconclusive: 26.1 µM [inhibitor, single point]
27 | CS(=O)(=O)c1ncc(Cl)c(C(=O)N(Cc2ccc(Cl)cc2)Cc2ccco2)n1 | inconclusive: 2.07 µM [inhibitor, full curve, poor fit]
28 | Oc1ccccc1Nc1nc(-c2ccccc2)c2cc(Cl)ccc2n1 | inconclusive: 3.69 µM [inhibitor, full curve, poor fit]
29 | CC(C)(C)c1ccc(C2NC(=O)c3n[nH]c(-c4cccs4)c32)cc1 (centres undefined) | inactive
30 | COc1ccc(-c2nc(CN3CCC(C(=O)NCCCN4CCN(c5ccccc5F)CC4)CC3)c(C)o2)cc1OC | inconclusive: 23.3 µM [inhibitor, single point]
31 | Cc1cccc(NC(=O)Cn2cc(C(=O)c3ccco3)c3ccccc32)c1C | inconclusive: 2.07 µM [inhibitor, full curve]
32 | CS(=O)(=O)N(CC(=O)NCCc1ccccc1)c1cc(C(F)(F)F)ccc1Cl | inactive
33 | CCCSc1ncc(Cl)c(C(=O)Nc2ccc(S(=O)(=O)N3CCCCC3C)cc2)n1 (centres undefined) | inactive
34 | CC(C)c1nnc(NC(=O)c2nc(S(=O)(=O)Cc3ccccc3)ncc2Cl)s1 | active: 5.21 µM
35 | COc1ccc(OCC(=O)NCc2ccc3c(c2)CCN3C(=O)c2cccc(C)c2)cc1 | inconclusive: 5.21 µM [inhibitor, full curve, poor fit]
36 | Cc1ccc(O)c(C(CC(=O)NCC2(c3ccccc3)CCCC2)c2ccccc2)c1 (centres undefined) | inconclusive: 26.1 µM [inhibitor, single point]
37 | CCc1ccc(S(=O)(=O)c2nnn(-c3ccc(F)cc3)c2N)cc1 | inconclusive: 13.1 µM [inhibitor, partial curve, poor fit]
38 | COc1ccccc1NC(=O)c1sc(-c2ccc(Cl)cc2)cc1N | inconclusive: 16.5 µM [inhibitor, single point]
39 | Cc1ccc(CN2C(=O)c3ccccc3Sc3ccc(C(=O)NCCCN4CCOCC4)cc32)cc1 | inconclusive: 18.5 µM [inhibitor, single point]

Reprinted at random: 2 compounds from above
Row | Structure (SMILES) | Potency
34 | CC(C)c1nnc(NC(=O)c2nc(S(=O)(=O)Cc3ccccc3)ncc2Cl)s1 | active: 5.21 µM
28 | Oc1ccccc1Nc1nc(-c2ccccc2)c2cc(Cl)ccc2n1 | inconclusive: 3.69 µM [inhibitor, full curve, poor fit]
